Test results reported in patent US10398676B2, “Use of alpha-hydroxy carbonyl compounds as reducing agents” (Morvus Technology Ltd, priority 2005, dated 2019).
Some of these results come from one statement about several compounds together.

Tests used:
[1] = Reduction of NADP+ by α-hydroxycarbonyl compounds (Example 7); format: physicochemical; conditions: 1 mM test compound, 200 μM NADP+, pH 10 (1 mM NaHCO3 buffer), over 2 minutes
Protocol: A 10 μL aliquot of test compound (at a concentration of 100 mM in water) is added to a 200 μM NADP^+ aqueous solution (approximately 990 μL), buffered to pH 10 (1 mM NaHCO3 buffer). The final concentration of the test compound in the assay solution was 1 mM. Reduction of NADP^+ was then monitored by measuring the increase, over the course of 2 minutes, of absorption at 350 nm on a spectrophotometer. Initial rates were recorded as the change in A350 per minute.

[2] = Reduction of tretazicar by α-hydroxycarbonyl compounds, HPLC initial rate (Example 8); format: physicochemical; conditions: 10 mM test compound, 100 μM tretazicar, 0.1 M sodium bicarbonate buffer, pH 9 or pH 10, 37° C.
Protocol: The assay was started by addition of 100 μL of 100 mM test compound (compound of formula I) in water to a mixture of tretazicar (100 μM) in 0.1 M sodium bicarbonate buffer, pH 9 or pH 10, to give a final volume of 1 mL. The mixture was incubated at 37° C. and aliquots (10 μL) were taken every 6 min and assayed immediately by HPLC [Partisil 10 SCX (4.2×150 mm) (Whatman, Maidstone, Kent, U.K.] eluted isocratically with 0.13 M sodium phosphate (pH 5) at 1.5 ml/min). The concentration of tretazicar was determined in each sample by reference of the corresponding peak area with an external standard, quantified by absorbance at 325 nm. Initial rates were calculated by curve fitting (FigP, Biosoft, Cambridge, U.K.). Reduction products were identified by retention time relative to an authentic standard.

| SMILES | Rate of NADP+ reduction [1] | rate of tretazicar reduction (no reducing activity detected) [2] |
| --- | --- | --- |
| OC1OCCOC1O (stereo not shown) [1,4-dioxane-2,3-diol] | below 0.001 change in A350 per minute | below 0.001 |
| O=C[C@H](O)[C@@H](O)[C@H](O)[C@H](O)CO [D-glucose] | below 0.001 change in A350 per minute | below 0.001 |
| OCC(O)CO [glycerol] | below 0.001 change in A350 per minute | below 0.001 |
| O=C1COCC(=O)O1 [diglycolic anhydride] | below 0.001 change in A350 per minute | below 0.001 |
| OCC1CCCCO1 (stereo not shown) [2-(hydroxymethyl)tetrahydropyran] | below 0.001 change in A350 per minute | below 0.001 |
